From PubChem BioAssay record AID602201 (NCATS, 2012).

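Tests whether compounds block coactivator recruitment by the ligand-activated VDR ligand-binding domain, using polarization of Texas Red emission near 615 nm after a two-hour incubation.
Five-point series from about 0.09 to 57 µM.
Potency is the fitted concentration giving half of the maximal inhibition; a lower value means a stronger inhibitor.
Calls follow a score built from curve class and fitted potency, where 0 is inactive, 1–39 inconclusive and 40–100 active; every row here is inconclusive, across full, partial and single-point curves.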

Values are in µM.
Every entry below has the call inconclusive.
Only part of the assay is shown, chiefly results filed as inconclusive.
A potency from a partial, single-point or poor curve is only a rough figure.
Some entries filed as inconclusive have a full curve.
Activity scores are not listed here.

With O=C1/C(=C/c2ccncc2)CCC/C1=C\c1ccncc1 [agonist-bound VDR ligand-binding domain] the assay gave Potency 2.512 µM (inhibitor, full curve, poor fit). CCc1sc(C(C2C(=O)CC(C)(C)CC2=O)C2C(=O)CC(C)(C)CC2=O)cc1[N+](=O)[O-] [agonist-bound VDR ligand-binding domain] read Potency 2.818 µM (inhibitor, partial curve). CC(=O)c1ccc(N=C2C(=O)Nc3ccccc32)cc1 [agonist-bound VDR ligand-binding domain] gave Potency 2.818 µM (inhibitor, full curve). With COc1ccc(Cc2c(O)nc(SC)n(C(C)=O)c2=O)cc1 [agonist-bound VDR ligand-binding domain] the assay gave Potency 7.943 µM (inhibitor, partial curve).

For CCN(CC)c1ccc(NC(=O)COc2ccccc2C#N)cc1S(=O)(=O)Nc1ccccc1OC [agonist-bound VDR ligand-binding domain] the result was Potency 8.912 µM (inhibitor, single point). For CCCOc1ccccc1/C=C1/C(=O)ON=C1C [agonist-bound VDR ligand-binding domain] the result was Potency 3.162 µM (inhibitor, single point). COc1ccc(NC(=O)CCS(=O)(=O)c2nc(-c3cccs3)cc(C(F)(F)F)n2)cc1OC [agonist-bound VDR ligand-binding domain] gave Potency 39.81 µM (inhibitor, single point). Cc1ccccc1OCc1nc2ccc(S(=O)(=O)N3CCOCC3)cc2[nH]1 [agonist-bound VDR ligand-binding domain] read Potency 10 µM (inhibitor, partial curve).

With CSc1nnc(NC(=O)c2nc(S(=O)(=O)Cc3ccccc3F)ncc2Cl)s1 [agonist-bound VDR ligand-binding domain] the assay gave Potency 3.162 µM (inhibitor, full curve). For Cc1ccc(S(=O)(=O)N[C@@H](Cc2ccccc2)C(=O)CCl)cc1 [agonist-bound VDR ligand-binding domain] the result was Potency 2.818 µM (inhibitor, full curve, poor fit). For O=C1ON=C(c2ccccc2)/C1=C/c1ccco1 [agonist-bound VDR ligand-binding domain] the result was Potency 1.259 µM (inhibitor, partial curve, poor fit). Cc1ccc(CS(=O)(=O)c2ncc(Cl)c(C(=O)Nc3nnc(C(C)C)s3)n2)cc1 [agonist-bound VDR ligand-binding domain] gave Potency 1.778 µM (inhibitor, full curve, poor fit).

Result for CCCOc1ccc(C(=O)CCNC(Cc2c[nH]c3ccccc23)C(=O)O)cc1 (configuration not stated) [agonist-bound VDR ligand-binding domain] was Potency 3.162 µM (inhibitor, full curve). For CC1=C(C)CS(=O)N(S(=O)(=O)c2ccc(Cl)cc2)C1 (configuration not stated) [agonist-bound VDR ligand-binding domain] the result was Potency 0.631 µM (inhibitor, partial curve, poor fit). CC1=NNC(=O)/C1=C\c1cn(-c2ccccc2)nc1-c1cccs1 [agonist-bound VDR ligand-binding domain] gave Potency 1.122 µM (inhibitor, full curve, poor fit). With O=[N+]([O-])c1c(Nc2ccccc2O)cc(Cl)c2nonc12 [agonist-bound VDR ligand-binding domain] the assay gave Potency 3.162 µM (inhibitor, partial curve).

With COc1ccc([N+](=O)[O-])c(S(=O)(=O)c2ccc(Cl)cc2)n1 [agonist-bound VDR ligand-binding domain] the assay gave Potency 3.981 µM (inhibitor, partial curve, poor fit). For O=C(O)Cn1c(O)c(C2=c3ccccc3=NC2=O)sc1=O [agonist-bound VDR ligand-binding domain] the result was Potency 3.162 µM (inhibitor, partial curve, poor fit). Result for CC1C/C(=C\c2cccnc2)C(=O)/C(=C/c2cccnc2)C1 (configuration not stated) [agonist-bound VDR ligand-binding domain] was Potency 3.548 µM (inhibitor, full curve, poor fit).